# Assay results reported in PubChem BioAssay AID1745846 (National Center for Advancing Translational Sciences (NCATS), 2022).
# The whole screen tested about 1,400 compounds, of which about 30 (2%) were called active. Inconclusive results (about 15%) are left out. The call rests on the fitted dose curve; in most records, active means well fitted inhibition curve with a large enough effect; inconclusive means small, poorly fitted or top-dose-only effect; inactive means flat fitted curve, though single readings scatter. This is one part of the list.
# Assay: Firefly Luciferase Counterscreen for Inhibitors of ATXN expression
# Details: luminescence; series mostly up to 57.5 µM; activity change, negative = inhibition: at the top concentration
# Summary of the method: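 Recombinant firefly luciferase at 10 nM final in 50 mM Tris pH 7.5, 10 mM MgCl2, 0.05% BSA, 0.01% Tween20 with substrate; compounds up to 57 uM final, 10 min room temperature, end-point luminescence. Buffer-only wells define 100% inhibition.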
# On the % scale 0 is the no-effect control and ±100 the full control effect.
row,Compound,"activity change, negative = inhibition"
1,CC(C)CCNC(=O)COc1cccc2c1OC(C)(C)C2,inactive: 1.13%
2,CCCC(=O)NC(c1ccc(OC)c(OC)c1)c1cc(Cl)c2cccnc2c1O (stereo unspecified),inactive: -15.3%
3,CC1CCCCN1S(=O)(=O)c1ccc(C(=O)Nc2nnc(-c3ccncc3)o2)cc1 (stereo unspecified),inactive: -7.65%
4,CC(=O)Nc1cccc(-c2ccnc3c2CC(C)(C(=O)Nc2ccc(F)c(Cl)c2)O3)c1 (stereo unspecified),inactive: 1.32%
5,COc1ccc(N(C)S(=O)(=O)c2ccc(Cl)c(C(=O)NCCc3ccc(Cl)cc3)c2)cc1,inactive: -4.37%
6,Cc1ccc(S(=O)(=O)Nc2cccc3cccnc23)cc1,inactive: -8.69%
7,NS(=O)(=O)c1ccc(CCNc2ccn3nc(-c4cccc(C(F)(F)F)c4)cc3n2)cc1,inactive: -6.02%
8,CCC(=O)NNC(=S)NC(=O)c1ccc(C)cc1,inactive: -8.2%
9,Cc1cc[n+](C(C)C(=O)c2ccc(-c3ccccc3)cc2)cc1 (stereo unspecified),inactive: 2.94%
10,COc1ccccc1N1C(=O)N(C(C)=O)C2C1Nc1ccccc1N2C (stereo unspecified),inactive: -12.5%
11,Cc1nc(SC2CC(=O)N(c3ccccc3)C2=O)n[nH]1 (stereo unspecified),inactive: -4.95%
12,O=C(Nc1ccc(NC(=O)c2ccco2)cc1)c1ccc2c(c1)OCCO2,inactive: -18.4%
13,CCc1c2c(nc3ccc(OC(=O)N4CCC(N5CCCCC5)CC4)cc13)-c1cc3c(c(=O)n1C2)COC(=O)[C@]3(O)CC,inactive: -0.243%
14,CCn1c(C)nc2cc(C(=O)N/N=C(\C)c3ccc(OC)cc3O)ccc21,inactive: -15.4%
15,C(=N\NC(=Nc1ccccc1)c1ccccn1)/c1ccccn1,inactive: -7.15%
16,COc1cccc(/C=N/NC(=O)c2ccc(-c3ccccc3)cc2)c1O,inactive: 1.65%
17,O=C(N/N=C(\c1ccccc1)c1ccccn1)c1ccccc1Cl,inactive: -10.3%
18,CCc1ccc(C(O)c2ncc(-c3cccc(C(F)(F)F)c3)[nH]2)cc1 (stereo unspecified),inactive: -4.68%
19,O=[N+]([O-])c1ccc(O)c(/C=N\N=C2c3ccccc3-c3ccccc32)c1,inactive: -3.8%
20,CCCOc1ccc(C(=O)C(CN2CCOCC2)c2ccccc2)cc1 (stereo unspecified),inactive: 0.919%
21,CCn1c2ccccc2c2cc(NC(=O)COC(=O)C3CCC(=O)N3)ccc21 (stereo unspecified),inactive: -8.44%
22,COc1ccccc1NC(=O)Nc1nc(CC(=O)N2CCN(c3ccccc3)CC2)cs1,inactive: -16.8%
23,CCCCC/C=C/C1=CC(=O)C[C@H](c2ccc(OC)c(OC)c2)C1,inactive: -0.984%
24,Cc1ccc(Sc2nnc(Cc3ccccc3)c3ccccc23)cc1,inactive: -5.16%
25,CCOC(=O)c1c2ccc(OCC(=O)N/N=C/c3ccc(C)cc3)cc2n2ccccc12,inactive: 0.619%
26,CCCC(NCC(O)COc1ccc(-c2ccccc2)cc1)c1ccccc1 (stereo unspecified),inactive: -3.86%

row,Compound,"activity change, negative = inhibition"
1,Cc1cccc2[nH]c3c(N4CC=C(c5ccc(F)cc5)CC4)ncnc3c12,inactive: -7.26%
2,Oc1cccc(C(O)CNCc2ccc(-c3ccccc3)cc2)c1 (stereo unspecified),inactive: -4.94%
3,CCc1ccccc1OCC(=O)Nc1nc(-c2cccnc2)cs1,inactive: -8.34%
4,COc1ccc(Cl)cc1C(Nc1cccnc1)c1ccc2cccnc2c1O (stereo unspecified),inactive: -1.9%
5,CCN(CC)c1c(C)nc2ccc(C(=O)Nc3cc(-c4ccccc4)ccc3OC)cn12,inactive: -8.24%
6,COCCCn1c(N)c(-c2nc3ccccc3n2C)c2nc3ccccc3nc21,inactive: 0.41%
7,Cc1cccc2sc(N(CCCN(C)C)C(=O)c3ccco3)nc12,inactive: -1.73%
8,Nc1c(C(=O)NCc2ccc3c(c2)OCO3)c2nc3ccccc3nc2n1CCCN1CCOCC1,inactive: -0.895%
9,COc1ccc(C(=O)C=CNNC(=O)c2ccc(Cl)cc2)cc1,inactive: -8.14%
10,OC[C@@H]1CN(Cc2ccc(-c3ccccc3)cc2)C[C@H](n2cnc3c(Nc4ccccc4)ncnc32)O1,inactive: 1.15%
11,Cc1cc(C)c(C)c(OC(=O)c2sc(Cl)nc2C)c1,inactive: -1.32%
12,O=C(N/N=C\c1ccc([N+](=O)[O-])s1)c1cncc(Br)c1,inactive: -0.173%
13,Cc1ccc(NC(=O)c2cnc(N3CCN(c4ccccn4)CC3)c3ccccc23)c(Br)c1,inactive: -2.3%
14,CCCc1cnc(NCCNCC(O)COc2ccc(Cl)c(Cl)c2)nc1 (stereo unspecified),inactive: 3.12%
15,COc1ccccc1NS(=O)(=O)c1cccc(C(=O)N/N=C/c2ccc([N+](=O)[O-])o2)c1,inactive: 0.633%
16,CCn1c2ccccc2c2cc(C3C(C#N)=C(N)Oc4n[nH]c(COC)c43)ccc21 (stereo unspecified),inactive: -13%
17,Cc1nn2c(NCc3ccccn3)c3c(nc2c1-c1ccccc1)CCC3,inactive: -7.77%
18,Cc1ncc(CO)c(/C=N/NC(=O)c2cccc(S(=O)(=O)N3CCCC3)c2)c1O,inactive: -3.06%
19,Clc1ccc2nc(-c3ccccn3)c(Nc3ccc4c(c3)OCO4)n2c1,inactive: -0.752%
20,Cc1ccc2ccc(C(Nc3ccccn3)c3ccccc3)c(O)c2n1 (stereo unspecified),inactive: -7.07%
21,Nc1ccn([C@@H]2O[C@H](CO)[C@@H](O)C2O)c(=O)n1 (stereo partly specified),inactive: 3.72%
22,Cc1cc(C)cc(C(=O)NC(=S)Nc2ccc(-c3cc4ccccc4oc3=O)cc2)c1,inactive: -6.17%
23,CCCCC(=O)NC(c1ccc(OC)c(OC)c1)c1ccc2cccnc2c1O (stereo unspecified),inactive: -1.52%
24,Oc1c(C(c2ccccn2)N2CCC(Cc3ccccc3)CC2)cc(Cl)c2cccnc12 (stereo unspecified),inactive: -3%
25,Cc1cnc(NC(=O)CN2CCN(c3ccccn3)CC2)s1,inactive: -0.537%

# By substructure, those above with a furan ring, fused or not (3)
row,Compound,"activity change, negative = inhibition"
12,O=C(Nc1ccc(NC(=O)c2ccco2)cc1)c1ccc2c(c1)OCCO2,inactive: -18.4%
7,Cc1cccc2sc(N(CCCN(C)C)C(=O)c3ccco3)nc12,inactive: -1.73%
15,COc1ccccc1NS(=O)(=O)c1cccc(C(=O)N/N=C/c2ccc([N+](=O)[O-])o2)c1,inactive: 0.633%
